Reference: publication PMC4489722
Results are given in words; binding and its absence hold for the method and conditions named. Binding seen in cells or lysates may run through a third protein. Some binding calls cover weakened binding; strength is not graded here.

The chains behind the UniProt entries cited, without tags or fusion partners.
UniProt Q86WV6: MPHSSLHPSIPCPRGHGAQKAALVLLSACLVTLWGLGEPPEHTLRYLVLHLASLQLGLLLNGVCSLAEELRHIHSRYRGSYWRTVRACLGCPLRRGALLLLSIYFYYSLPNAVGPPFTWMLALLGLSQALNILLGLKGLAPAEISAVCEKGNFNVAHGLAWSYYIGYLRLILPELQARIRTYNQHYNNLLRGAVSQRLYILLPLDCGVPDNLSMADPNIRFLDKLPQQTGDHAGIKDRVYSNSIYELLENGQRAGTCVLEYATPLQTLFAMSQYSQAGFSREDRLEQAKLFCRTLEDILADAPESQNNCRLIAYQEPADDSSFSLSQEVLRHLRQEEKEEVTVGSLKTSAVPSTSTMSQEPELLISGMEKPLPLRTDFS
UniProt Q09472: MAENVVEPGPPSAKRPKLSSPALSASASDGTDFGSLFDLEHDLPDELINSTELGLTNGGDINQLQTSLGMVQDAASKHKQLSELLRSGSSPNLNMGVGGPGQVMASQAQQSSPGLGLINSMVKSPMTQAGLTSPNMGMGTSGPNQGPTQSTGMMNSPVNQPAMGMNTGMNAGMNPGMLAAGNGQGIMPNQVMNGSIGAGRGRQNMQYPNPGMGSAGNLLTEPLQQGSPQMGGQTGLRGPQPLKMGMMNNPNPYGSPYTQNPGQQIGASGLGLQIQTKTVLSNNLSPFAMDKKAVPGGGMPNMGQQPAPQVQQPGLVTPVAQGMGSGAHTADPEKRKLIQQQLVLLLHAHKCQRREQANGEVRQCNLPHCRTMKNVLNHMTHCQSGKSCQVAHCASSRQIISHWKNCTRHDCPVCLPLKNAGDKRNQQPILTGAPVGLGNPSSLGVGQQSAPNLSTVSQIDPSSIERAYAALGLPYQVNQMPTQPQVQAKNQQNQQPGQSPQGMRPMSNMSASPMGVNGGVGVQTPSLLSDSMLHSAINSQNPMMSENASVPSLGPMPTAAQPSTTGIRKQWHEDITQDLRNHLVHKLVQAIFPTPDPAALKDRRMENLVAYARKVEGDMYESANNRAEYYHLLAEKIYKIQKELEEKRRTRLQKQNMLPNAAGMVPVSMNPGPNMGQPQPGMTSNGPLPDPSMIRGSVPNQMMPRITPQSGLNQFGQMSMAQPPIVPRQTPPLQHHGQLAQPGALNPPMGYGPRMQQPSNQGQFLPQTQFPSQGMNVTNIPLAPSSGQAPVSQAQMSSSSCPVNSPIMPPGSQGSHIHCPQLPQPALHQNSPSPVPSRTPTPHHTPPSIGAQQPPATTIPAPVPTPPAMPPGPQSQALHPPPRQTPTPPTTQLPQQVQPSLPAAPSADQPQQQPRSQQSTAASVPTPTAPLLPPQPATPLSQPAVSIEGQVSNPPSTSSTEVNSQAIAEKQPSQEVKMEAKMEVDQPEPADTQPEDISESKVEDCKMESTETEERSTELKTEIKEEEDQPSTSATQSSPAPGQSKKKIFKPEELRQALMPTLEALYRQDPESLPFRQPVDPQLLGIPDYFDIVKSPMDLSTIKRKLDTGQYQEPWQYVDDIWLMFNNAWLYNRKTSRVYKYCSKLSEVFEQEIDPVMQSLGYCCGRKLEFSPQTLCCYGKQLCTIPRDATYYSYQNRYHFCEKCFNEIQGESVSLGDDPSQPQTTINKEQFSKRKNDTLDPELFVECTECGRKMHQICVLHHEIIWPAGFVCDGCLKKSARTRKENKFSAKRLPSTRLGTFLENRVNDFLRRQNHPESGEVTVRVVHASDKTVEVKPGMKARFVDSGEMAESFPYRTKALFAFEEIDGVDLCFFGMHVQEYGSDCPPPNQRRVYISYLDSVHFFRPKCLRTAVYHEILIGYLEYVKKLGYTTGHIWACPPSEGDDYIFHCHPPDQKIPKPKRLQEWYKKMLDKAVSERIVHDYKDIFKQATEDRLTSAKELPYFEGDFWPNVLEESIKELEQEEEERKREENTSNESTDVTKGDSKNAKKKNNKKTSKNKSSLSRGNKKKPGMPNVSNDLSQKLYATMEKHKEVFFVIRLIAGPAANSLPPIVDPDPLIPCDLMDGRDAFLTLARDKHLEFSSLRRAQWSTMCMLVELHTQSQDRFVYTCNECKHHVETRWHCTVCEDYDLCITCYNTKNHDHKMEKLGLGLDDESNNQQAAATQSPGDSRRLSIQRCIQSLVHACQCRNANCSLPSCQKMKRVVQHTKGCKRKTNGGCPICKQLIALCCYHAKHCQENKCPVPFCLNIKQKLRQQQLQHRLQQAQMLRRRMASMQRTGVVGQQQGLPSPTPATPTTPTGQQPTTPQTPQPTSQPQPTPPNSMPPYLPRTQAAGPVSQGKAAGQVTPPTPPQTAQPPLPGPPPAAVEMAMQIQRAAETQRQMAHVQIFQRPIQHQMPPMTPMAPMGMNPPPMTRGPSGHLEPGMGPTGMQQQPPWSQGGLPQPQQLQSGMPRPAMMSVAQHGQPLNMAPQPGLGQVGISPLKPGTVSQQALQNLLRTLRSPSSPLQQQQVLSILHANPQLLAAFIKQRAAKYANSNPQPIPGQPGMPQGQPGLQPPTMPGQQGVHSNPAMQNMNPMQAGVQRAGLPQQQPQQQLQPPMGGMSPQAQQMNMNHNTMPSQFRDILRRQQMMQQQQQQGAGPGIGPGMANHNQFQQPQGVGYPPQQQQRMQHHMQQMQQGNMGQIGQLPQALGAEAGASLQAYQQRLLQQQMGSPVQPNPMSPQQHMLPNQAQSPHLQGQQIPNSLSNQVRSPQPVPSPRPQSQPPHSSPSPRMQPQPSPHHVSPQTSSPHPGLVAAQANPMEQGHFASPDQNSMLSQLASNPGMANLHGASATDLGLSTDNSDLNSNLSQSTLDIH
UniProt Q16666: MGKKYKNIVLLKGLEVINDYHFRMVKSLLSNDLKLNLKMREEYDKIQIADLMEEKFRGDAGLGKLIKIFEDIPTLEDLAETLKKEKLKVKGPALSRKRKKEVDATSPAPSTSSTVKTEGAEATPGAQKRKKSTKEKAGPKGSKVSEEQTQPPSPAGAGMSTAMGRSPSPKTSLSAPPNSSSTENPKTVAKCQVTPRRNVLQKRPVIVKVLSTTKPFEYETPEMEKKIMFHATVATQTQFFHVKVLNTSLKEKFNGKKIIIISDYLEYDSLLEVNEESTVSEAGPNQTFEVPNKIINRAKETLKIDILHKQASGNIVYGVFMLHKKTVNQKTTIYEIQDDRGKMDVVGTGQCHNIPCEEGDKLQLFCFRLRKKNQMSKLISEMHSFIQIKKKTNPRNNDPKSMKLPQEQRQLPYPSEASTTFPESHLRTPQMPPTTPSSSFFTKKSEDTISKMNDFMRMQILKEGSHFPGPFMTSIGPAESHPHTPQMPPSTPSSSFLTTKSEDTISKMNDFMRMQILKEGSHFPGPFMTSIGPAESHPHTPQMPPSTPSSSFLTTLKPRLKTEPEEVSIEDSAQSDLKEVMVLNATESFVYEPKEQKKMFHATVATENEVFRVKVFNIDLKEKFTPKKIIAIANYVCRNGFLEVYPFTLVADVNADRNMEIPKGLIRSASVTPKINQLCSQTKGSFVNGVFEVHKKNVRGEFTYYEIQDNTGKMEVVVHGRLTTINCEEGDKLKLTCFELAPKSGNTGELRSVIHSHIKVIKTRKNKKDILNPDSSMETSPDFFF

Experiments:
[1] = biological target: STING (human (endogenous in HMVEC-d, HFF)) (UniProt Q86WV6); test: co-IP; endogenous proteins, HFF whole cell lysates in NETN buffer, HSV-1 infected (1 PFU/cell; 30 min and 6 h p.i.); IP anti-STING, western blot for IFI16 and IRF-3
[2] = biological target: STING (human (endogenous in HMVEC-d, HFF)) (UniProt Q86WV6); test: co-IP; endogenous proteins, HMVEC-d whole cell lysates in NETN buffer, uninfected or KSHV infected (30 min to 24 h p.i.); untreated, Leptomycin B treated or Si-control cells; IP with anti-Ran, -ASC, -caspase-1, -p300 or -STING antibody at 4°C, western blot for IFI16
[3] = biological target: histone acetyltransferase p300 (human (endogenous in HMVEC-d)) (UniProt Q09472); test: as above
[4] = biological target: gamma-interferon-inducible protein 16 (IFI16) (human (endogenous in HMVEC-d, HFF, BCBL-1, BJAB)) (UniProt Q16666); test: cross-linking

binding [1]: binds
binding [2]: binds
binding [3]: binds
binding [4]: binds
Substance: gamma-interferon-inducible protein 16 (IFI16) (from UniProt Q16666 1-785)
